Results are given in words; binding and its absence hold for the method and conditions named.
Experiments:
[1] = molecular target: TEM8 extracellular vWA domain (residues 38-220) with the C177A mutation, called WT (human) (UniProt Q9H6X2); assay: SEC; gel filtration of TEM8 vWA domain in solution; both purified
[2] = molecular target: TEM8 extracellular vWA domain (residues 38-220) with the C177A mutation, called WT (human) (UniProt Q9H6X2); assay: crystal structure; both purified
[3] = molecular target: TEM8 extracellular vWA domain (residues 38-220) with the C177A mutation, called WT (human) (UniProt Q9H6X2); assay: AUC; both purified

Sequences of proteins named here, by UniProt entry; tags and fusion partners are left off. A change or cut given only in a name is not applied to a line headed by its entry. A line that says so, or that is headed by a name, gives the form on record, which may keep a tag or linker. Residues count along the entry.
TEM8 extracellular vWA domain (residues 38-220) with the C177A mutation, called WT (Q9H6X2-1, form named): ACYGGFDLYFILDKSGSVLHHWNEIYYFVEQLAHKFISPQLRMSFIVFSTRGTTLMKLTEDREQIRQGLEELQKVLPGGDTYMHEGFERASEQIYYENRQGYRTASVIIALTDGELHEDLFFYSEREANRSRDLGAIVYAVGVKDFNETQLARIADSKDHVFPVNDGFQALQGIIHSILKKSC

With “TEM8 extracellular vWA domain (residues 38-220) with the C177A mutation, called WT (from UniProt Q9H6X2-1 38-220) (domain or fragment)” the binding [1] was “no binding”, the binding [2] was “no binding” and the binding [3] was “no binding (tested: 1 mg/ml)”.
